These are yes or no findings as the source states them, for the method shown. In cells and extracts the contact can be indirect. Some entries that bind do so weakly or less than the wild type.
Assays:
Experiment in all cases: co-IP
[1] = biological target: GFP-tagged ZAP 1-256 truncation mutant (human) (UniProt Q7Z2W4)
[2] = biological target: GFP-tagged ZAP 1-352 truncation mutant (human) (UniProt Q7Z2W4)
[3] = biological target: GFP-tagged ZAP-S with added CaaX box (GFP-ZAP-S + CVIS) (human) (UniProt Q7Z2W4)
[4] = biological target: GFP-tagged long isoform of zinc finger antiviral protein (GFP-ZAP-L) (human) (UniProt Q7Z2W4)
[5] = biological target: GFP-tagged ZAP-L C899S (inactivated CaaX box) (human) (UniProt Q7Z2W4)

Amino acid sequences for entries named in this document (tags omitted). A change or cut given only in a name is not applied to a line headed by its entry. Residues count along the entry.
UniProt Q7Z2W4, whole entry: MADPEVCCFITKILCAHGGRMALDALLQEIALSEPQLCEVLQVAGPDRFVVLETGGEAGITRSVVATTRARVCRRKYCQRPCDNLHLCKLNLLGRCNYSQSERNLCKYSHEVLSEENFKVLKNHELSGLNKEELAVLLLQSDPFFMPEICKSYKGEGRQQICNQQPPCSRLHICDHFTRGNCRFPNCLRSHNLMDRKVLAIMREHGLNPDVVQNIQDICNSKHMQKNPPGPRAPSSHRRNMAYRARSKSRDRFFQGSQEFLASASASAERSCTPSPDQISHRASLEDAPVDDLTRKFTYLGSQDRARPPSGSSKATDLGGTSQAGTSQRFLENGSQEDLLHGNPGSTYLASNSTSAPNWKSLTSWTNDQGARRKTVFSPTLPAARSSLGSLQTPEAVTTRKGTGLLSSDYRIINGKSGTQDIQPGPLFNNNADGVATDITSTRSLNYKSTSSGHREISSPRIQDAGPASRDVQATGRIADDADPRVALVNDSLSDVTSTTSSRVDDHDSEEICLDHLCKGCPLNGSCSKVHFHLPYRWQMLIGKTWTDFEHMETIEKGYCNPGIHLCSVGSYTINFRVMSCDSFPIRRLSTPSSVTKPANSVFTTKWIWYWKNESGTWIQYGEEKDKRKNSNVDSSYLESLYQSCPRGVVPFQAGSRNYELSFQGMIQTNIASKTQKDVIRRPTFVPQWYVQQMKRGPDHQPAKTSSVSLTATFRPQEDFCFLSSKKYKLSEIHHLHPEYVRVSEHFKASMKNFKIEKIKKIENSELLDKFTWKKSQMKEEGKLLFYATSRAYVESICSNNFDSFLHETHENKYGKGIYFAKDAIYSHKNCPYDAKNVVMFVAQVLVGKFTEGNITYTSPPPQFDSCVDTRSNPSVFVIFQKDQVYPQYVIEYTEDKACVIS
UniProt Q7Z2W4, 1-256, stated change not applied: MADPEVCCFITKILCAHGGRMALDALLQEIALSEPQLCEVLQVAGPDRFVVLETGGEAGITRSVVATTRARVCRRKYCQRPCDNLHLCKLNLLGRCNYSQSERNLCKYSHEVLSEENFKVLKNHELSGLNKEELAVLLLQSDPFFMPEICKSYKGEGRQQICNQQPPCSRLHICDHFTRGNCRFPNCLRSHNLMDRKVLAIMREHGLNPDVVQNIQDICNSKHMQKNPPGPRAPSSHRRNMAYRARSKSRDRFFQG
UniProt Q7Z2W4, 1-352, stated change not applied: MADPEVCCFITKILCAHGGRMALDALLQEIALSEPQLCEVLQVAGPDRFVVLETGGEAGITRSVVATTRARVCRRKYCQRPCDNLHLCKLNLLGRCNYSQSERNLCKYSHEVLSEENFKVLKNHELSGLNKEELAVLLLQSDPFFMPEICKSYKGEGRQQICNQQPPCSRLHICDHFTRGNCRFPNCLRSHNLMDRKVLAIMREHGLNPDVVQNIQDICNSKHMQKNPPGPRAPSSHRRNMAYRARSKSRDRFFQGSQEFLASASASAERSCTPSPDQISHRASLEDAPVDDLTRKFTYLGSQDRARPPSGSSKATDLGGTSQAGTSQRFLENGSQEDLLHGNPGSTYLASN
UniProt Q14258, whole entry: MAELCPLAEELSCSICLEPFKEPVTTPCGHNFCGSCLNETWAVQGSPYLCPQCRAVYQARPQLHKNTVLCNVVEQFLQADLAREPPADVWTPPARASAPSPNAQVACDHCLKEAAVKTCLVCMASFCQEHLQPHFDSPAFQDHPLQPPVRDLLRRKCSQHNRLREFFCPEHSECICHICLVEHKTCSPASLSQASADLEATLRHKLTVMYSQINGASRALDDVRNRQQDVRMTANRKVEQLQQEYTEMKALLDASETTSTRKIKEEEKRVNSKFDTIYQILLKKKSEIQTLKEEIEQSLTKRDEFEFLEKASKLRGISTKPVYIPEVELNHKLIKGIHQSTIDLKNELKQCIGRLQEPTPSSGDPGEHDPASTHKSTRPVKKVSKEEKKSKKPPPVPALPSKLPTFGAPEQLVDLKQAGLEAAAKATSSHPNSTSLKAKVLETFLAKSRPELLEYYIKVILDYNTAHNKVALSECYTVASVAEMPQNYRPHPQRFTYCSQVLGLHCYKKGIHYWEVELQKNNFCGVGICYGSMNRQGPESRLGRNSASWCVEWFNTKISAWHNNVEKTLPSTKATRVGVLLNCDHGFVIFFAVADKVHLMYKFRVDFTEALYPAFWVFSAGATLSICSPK
UniProt O15037, whole entry: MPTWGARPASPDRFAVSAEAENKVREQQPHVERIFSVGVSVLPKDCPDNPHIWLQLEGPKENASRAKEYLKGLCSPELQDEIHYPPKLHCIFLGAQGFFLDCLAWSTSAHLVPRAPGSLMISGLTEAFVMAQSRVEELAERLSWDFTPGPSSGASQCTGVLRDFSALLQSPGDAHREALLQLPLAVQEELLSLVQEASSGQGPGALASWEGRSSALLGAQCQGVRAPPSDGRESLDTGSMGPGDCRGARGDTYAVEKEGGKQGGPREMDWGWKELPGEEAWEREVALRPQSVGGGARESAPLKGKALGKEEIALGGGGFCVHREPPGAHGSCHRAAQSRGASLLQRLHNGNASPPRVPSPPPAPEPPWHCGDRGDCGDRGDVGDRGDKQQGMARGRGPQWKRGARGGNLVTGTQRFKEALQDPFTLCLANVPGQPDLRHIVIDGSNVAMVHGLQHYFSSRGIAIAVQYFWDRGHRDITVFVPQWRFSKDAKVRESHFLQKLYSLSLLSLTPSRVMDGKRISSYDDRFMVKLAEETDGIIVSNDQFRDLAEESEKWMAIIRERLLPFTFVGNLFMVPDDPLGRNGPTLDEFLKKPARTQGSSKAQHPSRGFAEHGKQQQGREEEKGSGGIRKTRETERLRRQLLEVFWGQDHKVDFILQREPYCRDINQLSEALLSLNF

Measured: binding

TRIM25 (endogenous) (from UniProt Q14258 1-630)
not listed: [5]
binds: all other assays above

KHNYN (endogenous) (from UniProt O15037 1-678)
binds: all assays above

— article doi:10.1101/2021.06.22.449398
